Source: publication PMC8994751
These are yes or no findings as the source states them, for the method shown. For some of these results: In cells and extracts the contact can be indirect. Some entries that bind do so weakly or less than the wild type. For some of these results: Sequences can lack the tags named with a protein. One block for each molecule: values may come before it.

By UniProt entry, the sequences of proteins in these tests, tags left out.
UniProt Q9GZV5: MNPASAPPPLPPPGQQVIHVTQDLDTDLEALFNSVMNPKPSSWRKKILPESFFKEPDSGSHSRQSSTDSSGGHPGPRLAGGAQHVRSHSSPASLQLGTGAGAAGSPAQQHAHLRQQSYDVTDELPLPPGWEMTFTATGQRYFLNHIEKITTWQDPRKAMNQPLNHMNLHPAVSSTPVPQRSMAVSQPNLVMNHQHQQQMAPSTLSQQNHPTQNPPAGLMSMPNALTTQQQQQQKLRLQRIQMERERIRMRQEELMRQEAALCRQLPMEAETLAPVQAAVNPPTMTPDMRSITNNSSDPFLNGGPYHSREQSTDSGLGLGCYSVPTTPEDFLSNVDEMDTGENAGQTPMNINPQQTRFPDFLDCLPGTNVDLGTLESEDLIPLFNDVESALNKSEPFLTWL

What was measured:
[1] = molecular target: T1, Flag-USP26 full length (UniProt Q9BXU7); assay: co-IP; HEK293 cells transfected with Flag-USP26 and Myc-TAZ full length or mutants; NP-40 lysis buffer; IP with Flag antibody, blot with Myc antibody
T1 sequence: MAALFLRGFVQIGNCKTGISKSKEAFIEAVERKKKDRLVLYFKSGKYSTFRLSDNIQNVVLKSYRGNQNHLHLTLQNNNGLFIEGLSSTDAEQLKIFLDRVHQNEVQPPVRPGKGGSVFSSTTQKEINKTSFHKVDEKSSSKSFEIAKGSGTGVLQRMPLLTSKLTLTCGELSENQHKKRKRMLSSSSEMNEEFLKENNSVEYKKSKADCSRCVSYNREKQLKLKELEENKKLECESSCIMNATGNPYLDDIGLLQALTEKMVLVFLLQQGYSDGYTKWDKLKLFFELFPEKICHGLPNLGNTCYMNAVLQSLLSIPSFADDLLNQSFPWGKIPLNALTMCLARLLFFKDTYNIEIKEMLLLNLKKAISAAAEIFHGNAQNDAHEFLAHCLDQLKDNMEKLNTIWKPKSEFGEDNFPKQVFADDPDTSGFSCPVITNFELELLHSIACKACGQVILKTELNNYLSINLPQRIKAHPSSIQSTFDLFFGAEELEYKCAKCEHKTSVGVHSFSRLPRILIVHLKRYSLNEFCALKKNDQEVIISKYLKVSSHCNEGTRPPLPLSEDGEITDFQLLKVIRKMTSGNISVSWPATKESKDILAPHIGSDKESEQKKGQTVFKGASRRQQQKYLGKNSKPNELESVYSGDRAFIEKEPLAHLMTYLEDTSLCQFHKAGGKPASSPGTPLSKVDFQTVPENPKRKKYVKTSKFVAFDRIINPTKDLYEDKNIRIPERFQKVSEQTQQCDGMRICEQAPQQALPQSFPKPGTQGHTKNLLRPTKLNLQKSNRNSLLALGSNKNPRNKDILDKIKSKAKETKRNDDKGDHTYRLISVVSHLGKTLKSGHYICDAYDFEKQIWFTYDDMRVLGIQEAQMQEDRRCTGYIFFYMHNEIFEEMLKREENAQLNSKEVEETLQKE

[2] = molecular target: TAZ (endogenous, CAL-62 cells) (human (endogenous in CAL-62)) (UniProt Q9GZV5); assay: co-IP; endogenous proteins from CAL-62 cells; RIPA lysis buffer; antibody as indicated, Protein A/G PLUS-Agarose, 4 °C overnight; western blot
[3] = molecular target: GST-TAZ (recombinant) (UniProt Q9GZV5); assay: pull-down; 2 μg recombinant GST or GST-TAZ with 2 μg recombinant USP26 and glutathione beads; 0.5 mM EDTA, 10 mM HEPES pH 7.5, 0.1% NP-40, 50 mM NaCl, 0.5 mM DTT; 4 °C, 2 h; western blot; both purified
[4] = molecular target: Myc-TAZ full length (UniProt Q9GZV5); assay: co-IP; HEK293 cells transfected with Myc-TAZ and Flag-USP26 full length or mutants; NP-40 lysis buffer; IP with Myc antibody, blot with Flag antibody

binding [2]: binds
B1: USP26 (endogenous, CAL-62 cells) (enzyme, UniProt Q9BXU7 1-913)
chain: MAALFLRGFVQIGNCKTGISKSKEAFIEAVERKKKDRLVLYFKSGKYSTFRLSDNIQNVVLKSYRGNQNHLHLTLQNNNGLFIEGLSSTDAEQLKIFLDRVHQNEVQPPVRPGKGGSVFSSTTQKEINKTSFHKVDEKSSSKSFEIAKGSGTGVLQRMPLLTSKLTLTCGELSENQHKKRKRMLSSSSEMNEEFLKENNSVEYKKSKADCSRCVSYNREKQLKLKELEENKKLECESSCIMNATGNPYLDDIGLLQALTEKMVLVFLLQQGYSDGYTKWDKLKLFFELFPEKICHGLPNLGNTCYMNAVLQSLLSIPSFADDLLNQSFPWGKIPLNALTMCLARLLFFKDTYNIEIKEMLLLNLKKAISAAAEIFHGNAQNDAHEFLAHCLDQLKDNMEKLNTIWKPKSEFGEDNFPKQVFADDPDTSGFSCPVITNFELELLHSIACKACGQVILKTELNNYLSINLPQRIKAHPSSIQSTFDLFFGAEELEYKCAKCEHKTSVGVHSFSRLPRILIVHLKRYSLNEFCALKKNDQEVIISKYLKVSSHCNEGTRPPLPLSEDGEITDFQLLKVIRKMTSGNISVSWPATKESKDILAPHIGSDKESEQKKGQTVFKGASRRQQQKYLGKNSKPNELESVYSGDRAFIEKEPLAHLMTYLEDTSLCQFHKAGGKPASSPGTPLSKVDFQTVPENPKRKKYVKTSKFVAFDRIINPTKDLYEDKNIRIPERFQKVSEQTQQCDGMRICEQAPQQALPQSFPKPGTQGHTKNLLRPTKLNLQKSNRNSLLALGSNKNPRNKDILDKIKSKAKETKRNDDKGDHTYRLISVVSHLGKTLKSGHYICDAYDFEKQIWFTYDDMRVLGIQEAQMQEDRRCTGYIFFYMHNEIFEEMLKREENAQLNSKEVEETLQKE

binding [3]: binds
B2: recombinant USP26 (enzyme, UniProt Q9BXU7 1-913)
chain: MAALFLRGFVQIGNCKTGISKSKEAFIEAVERKKKDRLVLYFKSGKYSTFRLSDNIQNVVLKSYRGNQNHLHLTLQNNNGLFIEGLSSTDAEQLKIFLDRVHQNEVQPPVRPGKGGSVFSSTTQKEINKTSFHKVDEKSSSKSFEIAKGSGTGVLQRMPLLTSKLTLTCGELSENQHKKRKRMLSSSSEMNEEFLKENNSVEYKKSKADCSRCVSYNREKQLKLKELEENKKLECESSCIMNATGNPYLDDIGLLQALTEKMVLVFLLQQGYSDGYTKWDKLKLFFELFPEKICHGLPNLGNTCYMNAVLQSLLSIPSFADDLLNQSFPWGKIPLNALTMCLARLLFFKDTYNIEIKEMLLLNLKKAISAAAEIFHGNAQNDAHEFLAHCLDQLKDNMEKLNTIWKPKSEFGEDNFPKQVFADDPDTSGFSCPVITNFELELLHSIACKACGQVILKTELNNYLSINLPQRIKAHPSSIQSTFDLFFGAEELEYKCAKCEHKTSVGVHSFSRLPRILIVHLKRYSLNEFCALKKNDQEVIISKYLKVSSHCNEGTRPPLPLSEDGEITDFQLLKVIRKMTSGNISVSWPATKESKDILAPHIGSDKESEQKKGQTVFKGASRRQQQKYLGKNSKPNELESVYSGDRAFIEKEPLAHLMTYLEDTSLCQFHKAGGKPASSPGTPLSKVDFQTVPENPKRKKYVKTSKFVAFDRIINPTKDLYEDKNIRIPERFQKVSEQTQQCDGMRICEQAPQQALPQSFPKPGTQGHTKNLLRPTKLNLQKSNRNSLLALGSNKNPRNKDILDKIKSKAKETKRNDDKGDHTYRLISVVSHLGKTLKSGHYICDAYDFEKQIWFTYDDMRVLGIQEAQMQEDRRCTGYIFFYMHNEIFEEMLKREENAQLNSKEVEETLQKE

The remaining lines, values behind:

Molecule: Myc-TAZ full length (from UniProt Q9GZV5 1-400)
binding [1]: binds

B3: Flag-USP26 USP domain (deletion mutant) (domain or fragment, UniProt Q9BXU7 295-886)
chain: HGLPNLGNTCYMNAVLQSLLSIPSFADDLLNQSFPWGKIPLNALTMCLARLLFFKDTYNIEIKEMLLLNLKKAISAAAEIFHGNAQNDAHEFLAHCLDQLKDNMEKLNTIWKPKSEFGEDNFPKQVFADDPDTSGFSCPVITNFELELLHSIACKACGQVILKTELNNYLSINLPQRIKAHPSSIQSTFDLFFGAEELEYKCAKCEHKTSVGVHSFSRLPRILIVHLKRYSLNEFCALKKNDQEVIISKYLKVSSHCNEGTRPPLPLSEDGEITDFQLLKVIRKMTSGNISVSWPATKESKDILAPHIGSDKESEQKKGQTVFKGASRRQQQKYLGKNSKPNELESVYSGDRAFIEKEPLAHLMTYLEDTSLCQFHKAGGKPASSPGTPLSKVDFQTVPENPKRKKYVKTSKFVAFDRIINPTKDLYEDKNIRIPERFQKVSEQTQQCDGMRICEQAPQQALPQSFPKPGTQGHTKNLLRPTKLNLQKSNRNSLLALGSNKNPRNKDILDKIKSKAKETKRNDDKGDHTYRLISVVSHLGKTLKSGHYICDAYDFEKQIWFTYDDMRVLGIQEAQMQEDRRCTGYIFFYMHN
binding [4]: binds
